Some of the results follow.
How the values were obtained:
Assay in all cases: glycan array binding signal (z-score within array); higher = stronger binding
Conditions in all cases: glycan notation: IUPAC condensed, linker removed
Gal(a1-3)Gal(b1-4)GlcNAc = molecular target: Gal(a1-3)Gal(b1-4)GlcNAc
In short: (§1)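 Columns mapping to the same glycan were averaged after glycan names were converted to IUPAC-condensed notation. The data come from 3228 arrays in the Consortium for Functional Glycomics database, limited to those with an available protein sequence. Binding is reported as a within-array Z-score averaged across arrays of one protein sequence and across linkers.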

[1] = molecular target: Gal(a1-3)Gal(b1-4)GlcNAc(b1-2)Man
In short: as §1

[2] = molecular target: Gal(a1-3)Gal(b1-4)GlcNAc(b1-2)Man(a1-3)[Gal(a1-3)Gal(b1-4)GlcNAc(b1-2)Man(a1-6)]Man(b1-4)GlcNAc(b1-4)GlcNAc
In short: as §1

[3] = molecular target: Gal(a1-3)Gal(b1-4)GlcNAc(b1-3)GalNAc
In short: as §1

[4] = molecular target: Gal(a1-3)Gal(b1-4)GlcNAc(b1-6)GalNAc
In short: as §1

[5] = molecular target: Gal(a1-3)Gal(b1-4)[Fuc(a1-3)]GlcNAc
In short: as §1

[6] = molecular target: Gal(a1-3)Gal(b1-4)[Fuc(a1-3)]GlcNAc(b1-2)Man(a1-3)[Gal(a1-3)Gal(b1-4)[Fuc(a1-3)]GlcNAc(b1-2)Man(a1-6)]Man(b1-4)GlcNAc(b1-4)GlcNAc
In short: as §1

Gal(a1-3)GalNAc = molecular target: Gal(a1-3)GalNAc
In short: as §1

[7] = molecular target: Gal(a1-3)[Gal(a1-4)]Gal(b1-4)GlcNAc
In short: as §1

[8] = molecular target: Gal(a1-4)Gal(b1-3)GlcNAc(b1-2)Man(a1-3)[Gal(a1-4)Gal(b1-3)GlcNAc(b1-2)Man(a1-6)]Man(b1-4)GlcNAc(b1-4)GlcNAc
In short: as §1

Gal(a1-4)Gal(b1-4)Glc = molecular target: Gal(a1-4)Gal(b1-4)Glc
In short: as §1

Gal(a1-4)Gal(b1-4)GlcNAc = molecular target: Gal(a1-4)Gal(b1-4)GlcNAc
In short: as §1

[9] = molecular target: Gal(a1-4)Gal(b1-4)GlcNAc(b1-2)Man(a1-3)[Gal(a1-4)Gal(b1-4)GlcNAc(b1-2)Man(a1-6)]Man(b1-4)GlcNAc(b1-4)GlcNAc
In short: as §1

[10] = molecular target: Gal(a1-4)Gal(b1-4)GlcNAc(b1-3)Gal(b1-4)Glc
In short: as §1

Gal(a1-4)GlcNAc = molecular target: Gal(a1-4)GlcNAc
In short: as §1

Gal(a1-6)Glc = molecular target: Gal(a1-6)Glc
In short: as §1

Gal(b1-2)Gal = molecular target: Gal(b1-2)Gal
In short: as §1

Gal(b1-3)Gal = molecular target: Gal(b1-3)Gal
In short: as §1

Gal(b1-3)Gal(b1-4)GlcNAc = molecular target: Gal(b1-3)Gal(b1-4)GlcNAc
In short: as §1

Gal(b1-3)GalNAc = molecular target: Gal(b1-3)GalNAc
In short: as §1

[11] = molecular target: Gal(b1-3)GalNAc(a1-3)[Fuc(a1-2)]Gal(b1-4)Glc
In short: as §1

[12] = molecular target: Gal(b1-3)GalNAc(a1-3)[Fuc(a1-2)]Gal(b1-4)GlcNAc
In short: as §1

Gal(b1-3)GalNAc(b1-3)Gal = molecular target: Gal(b1-3)GalNAc(b1-3)Gal
In short: as §1

[13] = molecular target: Gal(b1-3)GalNAc(b1-3)Gal(a1-4)Gal(b1-4)Glc
In short: as §1

[14] = molecular target: Gal(b1-3)GalNAc(b1-4)Gal(b1-4)Glc
In short: as §1

[15] = molecular target: Gal(b1-3)GalNAc(b1-4)[Neu5Ac(a2-3)]Gal(b1-4)Glc
In short: as §1

Gal(b1-3)GlcNAc = molecular target: Gal(b1-3)GlcNAc
In short: as §1

[16] = molecular target: Gal(b1-3)GlcNAc(a1-3)Gal(b1-4)GlcNAc
In short: as §1

[17] = molecular target: Gal(b1-3)GlcNAc(a1-6)Gal(b1-4)GlcNAc
In short: as §1

Gal(b1-3)GlcNAc(b1-2)Man = molecular target: Gal(b1-3)GlcNAc(b1-2)Man
In short: as §1

[18] = molecular target: Gal(b1-3)GlcNAc(b1-2)Man(a1-3)[Gal(b1-3)GlcNAc(b1-2)Man(a1-6)]Man(b1-4)GlcNAc(b1-4)GlcNAc
In short: as §1

[19] = molecular target: Gal(b1-3)GlcNAc(b1-2)Man(a1-3)[Gal(b1-3)GlcNAc(b1-2)Man(a1-6)]Man(b1-4)GlcNAc(b1-4)[Fuc(a1-6)]GlcNAc
In short: as §1

[20] = molecular target: Gal(b1-3)GlcNAc(b1-2)Man(a1-3)[GlcNAc(b1-4)][Gal(b1-3)GlcNAc(b1-2)Man(a1-6)]Man(b1-4)GlcNAc(b1-4)GlcNAc
In short: as §1

[21] = molecular target: Gal(b1-3)GlcNAc(b1-2)[Gal(b1-3)GlcNAc(b1-6)]Man(a1-6)[Gal(b1-3)GlcNAc(b1-2)Man(a1-3)]Man(b1-4)GlcNAc(b1-4)GlcNAc
In short: as §1

[22] = molecular target: Gal(b1-3)GlcNAc(b1-3)Gal(b1-3)GlcNAc
In short: as §1

[23] = molecular target: Gal(b1-3)GlcNAc(b1-3)Gal(b1-4)Glc
In short: as §1

[24] = molecular target: Gal(b1-3)GlcNAc(b1-3)Gal(b1-4)GlcNAc
In short: as §1

[25] = molecular target: Gal(b1-3)GlcNAc(b1-3)Gal(b1-4)GlcNAc(b1-2)Man(a1-3)[Gal(b1-3)GlcNAc(b1-3)Gal(b1-4)GlcNAc(b1-2)Man(a1-6)]Man(b1-4)GlcNAc(b1-4)GlcNAc
In short: as §1

[26] = molecular target: Gal(b1-3)GlcNAc(b1-3)Gal(b1-4)GlcNAc(b1-2)[Gal(b1-3)GlcNAc(b1-3)Gal(b1-4)GlcNAc(b1-6)]Man(a1-6)[Gal(b1-3)GlcNAc(b1-3)Gal(b1-4)GlcNAc(b1-2)Man(a1-3)]Man(b1-4)GlcNAc(b1-4)[Fuc(a1-6)]GlcNAc
In short: as §1

[27] = molecular target: Gal(b1-3)GlcNAc(b1-3)Gal(b1-4)GlcNAc(b1-3)Gal(b1-4)GlcNAc(b1-2)[Gal(b1-3)GlcNAc(b1-3)Gal(b1-4)GlcNAc(b1-3)Gal(b1-4)GlcNAc(b1-6)]Man(a1-6)[Gal(b1-3)GlcNAc(b1-3)Gal(b1-4)GlcNAc(b1-3)Gal(b1-4)GlcNAc(b1-2)Man(a1-3)]Man(b1-4)GlcNAc(b1-4)[Fuc(a1-6)]GlcNAc
In short: as §1

[28] = molecular target: Gal(b1-3)GlcNAc(b1-3)Gal(b1-4)GlcNAc(b1-6)[Gal(b1-3)GlcNAc(b1-3)]Gal(b1-4)Glc
In short: as §1

[29] = molecular target: Gal(b1-3)GlcNAc(b1-3)Gal(b1-4)[Fuc(a1-3)]GlcNAc
In short: as §1

[30] = molecular target: Gal(b1-3)GlcNAc(b1-3)Gal(b1-4)[Fuc(a1-3)]GlcNAc(b1-6)[Gal(b1-3)GlcNAc(b1-3)]Gal(b1-4)Glc
In short: as §1

[31] = molecular target: Gal(b1-3)GlcNAc(b1-3)GalNAc
In short: as §1

[32] = molecular target: Gal(b1-3)GlcNAc(b1-6)Gal(b1-4)GlcNAc
In short: as §1

B1: XTP3-B-MRH2 (Homo sapiens), Q96DZ1 (protein)
chain: EFLSGSYCFRGGVGWWKYEFCYGKHVHQYHEDKDSGKTSVVVGTWNQEEHIEWAKKNTARAYHLQDDGTQTVRMVSHFYGNGDICDITDKPRQVTVKLKCKESDSPHAVTVYMLEPHSCQYILGVESPVICKILDTA
- glycan array binding signal (z-score) (Gal(a1-3)Gal(b1-4)GlcNAc): -0.446
- glycan array binding signal (z-score) [1]: -1.61
- glycan array binding signal (z-score) [2]: -0.577
- glycan array binding signal (z-score) [3]: 0.202
- glycan array binding signal (z-score) [4]: -0.743
- glycan array binding signal (z-score) [5]: -0.893
- glycan array binding signal (z-score) [6]: 1.21
- glycan array binding signal (z-score) (Gal(a1-3)GalNAc): 1.74
- glycan array binding signal (z-score) [7]: 1.63
- glycan array binding signal (z-score) [8]: 0.355
- glycan array binding signal (z-score) (Gal(a1-4)Gal(b1-4)Glc): 0.392
- glycan array binding signal (z-score) (Gal(a1-4)Gal(b1-4)GlcNAc): -0.24
- glycan array binding signal (z-score) [9]: 0.106
- glycan array binding signal (z-score) [10]: -0.362
- glycan array binding signal (z-score) (Gal(a1-4)GlcNAc): -1.44
- glycan array binding signal (z-score) (Gal(a1-6)Glc): -0.776
- glycan array binding signal (z-score) (Gal(b1-2)Gal): -0.575
- glycan array binding signal (z-score) (Gal(b1-3)Gal): 0.943
- glycan array binding signal (z-score) (Gal(b1-3)Gal(b1-4)GlcNAc): -0.214
- glycan array binding signal (z-score) (Gal(b1-3)GalNAc): -0.133
- glycan array binding signal (z-score) [11]: -1.25
- glycan array binding signal (z-score) [12]: 0.353
- glycan array binding signal (z-score) (Gal(b1-3)GalNAc(b1-3)Gal): -0.492
- glycan array binding signal (z-score) [13]: -0.32
- glycan array binding signal (z-score) [14]: -0.209
- glycan array binding signal (z-score) [15]: 0.148
- glycan array binding signal (z-score) (Gal(b1-3)GlcNAc): -0.191
- glycan array binding signal (z-score) [16]: -1.67
- glycan array binding signal (z-score) [17]: -0.955
- glycan array binding signal (z-score) (Gal(b1-3)GlcNAc(b1-2)Man): -0.037
- glycan array binding signal (z-score) [18]: -0.334
- glycan array binding signal (z-score) [19]: -0.441
- glycan array binding signal (z-score) [20]: -0.455
- glycan array binding signal (z-score) [21]: -0.907
- glycan array binding signal (z-score) [22]: 0.964
- glycan array binding signal (z-score) [23]: 0.052
- glycan array binding signal (z-score) [24]: 1.54
- glycan array binding signal (z-score) [25]: -0.105
- glycan array binding signal (z-score) [26]: -0.138
- glycan array binding signal (z-score) [27]: -0.411
- glycan array binding signal (z-score) [28]: 2.09
- glycan array binding signal (z-score) [29]: -0.375
- glycan array binding signal (z-score) [30]: -0.339
- glycan array binding signal (z-score) [31]: 0.996
- glycan array binding signal (z-score) [32]: -0.034

Reference: the supplement of paper PMC8728848
